{"source": "PubChem BioAssay AID1224828 – NIAID | 2016", "aim": "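Find genes required for NF-kappaB p65 moving into the nucleus after LPS in mouse macrophages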 (primary screen)", "system": "mouse RAW264.7 G9 macrophage reporter cells (GFP-p65, Tnf promoter-mCherry)", "reagents": "siRNA pool against mouse genes, 100 nM", "time to read-out": "2 days siRNA transfection, then 40 min LPS before fixation", "treatment": "LPS (Salmonella minnesota R595) at 10 ng/ml", "measured": "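Imaged p65 nuclear translocation ratio, normalised to the plate median, converted to robust z-scores and averaged across two replicates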", "scale": "p65 translocation robust z-score: higher = more nuclear NF-kappaB p65 after LPS than the plate median; nuclear/cytoplasmic p65 ratio: higher = more nuclear NF-kappaB p65", "active means": "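Active if robust z is above 3.3 (negative regulators) or below -1.56, the Tlr4 control median (positive regulators); activity score 50 or more; control wells not called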", "calls": "active = hit (p65 shift raised or lowered); inactive = no clear change", "note": "Here is a random part of about 17,000 reagents. 762 of all reagents (4.5%) were called active. 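Active calls include both raised and lowered p65 entry, mostly lowered; wells with fewer than 50 cells lack a z-score.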 The raw values are shown without normalisation. Unmarked entries are inactive. A reagent listed more than once was tested more than once; the source does not tell the runs apart. No sequences are given here."}
{"target": "Hectd2", "p65 translocation robust z-score": -0.29, "nuclear/cytoplasmic p65 ratio, rep 1": 1.61, "nuclear/cytoplasmic p65 ratio, rep 2": 1.5, "low cell count flag": "enough cells to score"}
{"target": "Or11q2", "p65 translocation robust z-score": -0.11, "nuclear/cytoplasmic p65 ratio, rep 1": 1.57, "nuclear/cytoplasmic p65 ratio, rep 2": 1.43, "low cell count flag": "enough cells to score"}
{"target": "Cacna2d2", "nuclear/cytoplasmic p65 ratio, rep 1": 1.14, "nuclear/cytoplasmic p65 ratio, rep 2": 1.27, "low cell count flag": "fewer than 50 cells per well; well left out of scoring"}
{"target": "Eif2b3", "p65 translocation robust z-score": 1.67, "nuclear/cytoplasmic p65 ratio, rep 1": 1.78, "nuclear/cytoplasmic p65 ratio, rep 2": 1.5, "low cell count flag": "enough cells to score"}
{"target": "Dctpp1", "nuclear/cytoplasmic p65 ratio, rep 1": 1.71, "nuclear/cytoplasmic p65 ratio, rep 2": 2.41, "low cell count flag": "fewer than 50 cells per well; well left out of scoring"}
{"target": "Rpl13", "p65 translocation robust z-score": -0.51, "nuclear/cytoplasmic p65 ratio, rep 1": 1.32, "nuclear/cytoplasmic p65 ratio, rep 2": 1.19, "low cell count flag": "enough cells to score"}
{"target": "Msantd1", "p65 translocation robust z-score": "-1.72 (active)", "nuclear/cytoplasmic p65 ratio, rep 1": 1.28, "nuclear/cytoplasmic p65 ratio, rep 2": 1.29, "low cell count flag": "enough cells to score"}
{"target": "Akap5", "p65 translocation robust z-score": 0.86, "nuclear/cytoplasmic p65 ratio, rep 1": 1.86, "nuclear/cytoplasmic p65 ratio, rep 2": 1.45, "low cell count flag": "enough cells to score"}
{"target": "Slc3a1", "p65 translocation robust z-score": "-1.69 (active)", "nuclear/cytoplasmic p65 ratio, rep 1": 1.27, "nuclear/cytoplasmic p65 ratio, rep 2": 1.38, "low cell count flag": "enough cells to score"}
{"target": "Pgap6", "nuclear/cytoplasmic p65 ratio, rep 1": 1.41, "nuclear/cytoplasmic p65 ratio, rep 2": 1.3, "low cell count flag": "fewer than 50 cells per well; well left out of scoring"}
{"target": "Ptbp3", "p65 translocation robust z-score": 1.3, "nuclear/cytoplasmic p65 ratio, rep 1": 1.63, "nuclear/cytoplasmic p65 ratio, rep 2": 1.34, "low cell count flag": "enough cells to score"}
{"target": "Ess2", "p65 translocation robust z-score": 0.63, "nuclear/cytoplasmic p65 ratio, rep 1": 1.66, "nuclear/cytoplasmic p65 ratio, rep 2": 1.57, "low cell count flag": "enough cells to score"}

Part of the list above in another layout:
target | p65 translocation robust z-score | nuclear/cytoplasmic p65 ratio, rep 1 | nuclear/cytoplasmic p65 ratio, rep 2 | low cell count flag
Eif2b3 | 1.67 | 1.78 | 1.5 | enough cells to score
Dctpp1 | – | 1.71 | 2.41 | fewer than 50 cells per well; well left out of scoring

Next records follow.
{"target": "Rpl10", "p65 translocation robust z-score": 1.33, "nuclear/cytoplasmic p65 ratio, rep 1": 1.6, "nuclear/cytoplasmic p65 ratio, rep 2": 1.26, "low cell count flag": "enough cells to score"}
{"target": "Trub1", "p65 translocation robust z-score": -0.39, "nuclear/cytoplasmic p65 ratio, rep 1": 1.34, "nuclear/cytoplasmic p65 ratio, rep 2": 1.42, "low cell count flag": "enough cells to score"}
{"target": "Gm5094", "p65 translocation robust z-score": 2.55, "nuclear/cytoplasmic p65 ratio, rep 1": 1.42, "nuclear/cytoplasmic p65 ratio, rep 2": 1.88, "low cell count flag": "enough cells to score"}
{"target": "Actl6a", "p65 translocation robust z-score": -0.21, "nuclear/cytoplasmic p65 ratio, rep 1": 1.18, "nuclear/cytoplasmic p65 ratio, rep 2": 1.31, "low cell count flag": "enough cells to score"}
{"target": "Actl6a", "p65 translocation robust z-score": -0.74, "nuclear/cytoplasmic p65 ratio, rep 1": 1.47, "nuclear/cytoplasmic p65 ratio, rep 2": 1.53, "low cell count flag": "enough cells to score"}
{"target": "Fam13a", "p65 translocation robust z-score": -0.21, "nuclear/cytoplasmic p65 ratio, rep 1": 1.56, "nuclear/cytoplasmic p65 ratio, rep 2": 1.49, "low cell count flag": "enough cells to score"}
{"target": "Shcbp1", "p65 translocation robust z-score": 0.14, "nuclear/cytoplasmic p65 ratio, rep 1": 1.4, "nuclear/cytoplasmic p65 ratio, rep 2": 1.29, "low cell count flag": "enough cells to score"}
{"target": "Or5p51", "nuclear/cytoplasmic p65 ratio, rep 1": 1.84, "nuclear/cytoplasmic p65 ratio, rep 2": 1.17, "low cell count flag": "fewer than 50 cells per well; well left out of scoring"}
{"target": "Slfn8", "nuclear/cytoplasmic p65 ratio, rep 1": 1.96, "nuclear/cytoplasmic p65 ratio, rep 2": 1.29, "low cell count flag": "fewer than 50 cells per well; well left out of scoring"}
